Results: US20150197492A1, “NOVEL INDENO[1,2-c]QUINOLIN-11-ONE DERIVATIVES, PREPARATION METHOD AND APPLICATION THEREOF” (National Defense Medical Center, priority 2014, published 2015)

test system: 55 to 60 cancer cell lines; format: cell-based; conditions: 10 μM, 48 hours, growth percentage over all tested cell lines

Row | SMILES | Delta | Range
1 | CNc1nc2ccccc2c2c1-c1ccc(Cl)cc1C2=O [SJ-1, 9-Chloro-6-(methylamino)-11H-indeno[1,2-c]quinolin-11-one] | 115.76 | 146.5
2 | CN(C)c1nc2ccccc2c2c1-c1ccc(Cl)cc1C2=O [SJ-2, 9-Chloro-6-(dimethylamino)-11H-indeno[1,2-c]quinolin-11-one] | 86.55 | 113.03
3 | CCN(CC)CCNc1nc2ccccc2c2c1-c1ccc(Cl)cc1C2=O [SJ-3, 6-(2-(Diethylamino)ethylamino)-9-chloro-11H-indeno[1,2-c]quinolin-11-one] | 52.65 | 89.81
4 | CC1CCN(c2nc3ccccc3c3c2-c2ccc(Cl)cc2C3=O)CC1 [SJ-6, 9-Chloro-6-(4-methylpiperidin-1-yl)-11H-indeno[1,2-c]quinolin-11-one] | 32.02 | 70.61
5 | O=C1c2cc(Cl)ccc2-c2c(N3CCOCC3)nc3ccccc3c21 [SJ-8, 9-Chloro-6-morpholino-11H-indeno[1,2-c]quinolin-11-one] | 47.92 | 91.19
6 | O=C1c2cc(Cl)ccc2-c2c(N3CCSCC3)nc3ccccc3c21 [SJ-9, 9-Chloro-6-thiomorpholino-11H-indeno[1,2-c]quinolin-11-one] | 45.14 | 72.18
7 | O=C1c2cc(Cl)ccc2-c2c(N3CCNCC3)nc3ccccc3c21 [SJ-10, 9-Chloro-6-(piperazin-1-yl)-11H-indeno[1,2-c]quinolin-11-one] | 85.63 | 167.25
8 | CN1CCN(c2nc3ccccc3c3c2-c2ccc(Cl)cc2C3=O)CC1 [SJ-12, 9-Chloro-6-(4-methylpiperazin-1-yl)-11H-indeno[1,2-c]quinolin-11-one] | 49.65 | 72.31
9 | O=C1c2cc(Cl)ccc2-c2c(N3CCN(C4CCCC4)CC3)nc3ccccc3c21 [SJ-14, 9-Chloro-6-(4-cyclopentylpiperazin-1-yl)-11H-indeno[1,2-c]quinolin-11-one] | 23.96 | 38.16
10 | O=C1c2cc(Cl)ccc2-c2c(N3CCN(c4ccccc4)CC3)nc3ccccc3c21 [SJ-16, 9-Chloro-6-(4-phenylpiperazin-1-yl)-11H-indeno[1,2-c]quinolin-11-one] | 54.09 | 82.41
11 | COc1cccc(N2CCN(c3nc4ccccc4c4c3-c3ccc(Cl)cc3C4=O)CC2)c1 [SJ-20, 9-Chloro-6-(4-(3-methoxyphenyl)piperazin-1-yl)-11H-indeno[1,2-c]quinolin-11-one] | 54.39 | 95.58
12 | O=C1c2cc(Cl)ccc2-c2c(N3CCN(C(=O)N4CCCCC4)CC3)nc3ccccc3c21 [SJ-23] | 19.69 | 51.13
13 | O=C1c2cc(Cl)ccc2-c2c(SCCO)nc3ccccc3c21 [SJ-25, 6-(2-Hydroxyethylthio)-9-chloro-11H-indeno[1,2-c]quinolin-11-one] | 49.37 | 82.39
14 | O=C1c2cc(Cl)ccc2-c2c(O)nc3ccccc3c21 [SJ-26, 6-Hydroxy-9-chloro-11H-indeno[1,2-c]quinolin-11-one] | 29.37 | 59.54
15 | COc1nc2ccccc2c2c1-c1ccc(Cl)cc1C2=O [SJ-27, 6-Methoxy-9-chloro-11H-indeno[1,2-c]quinolin-11-one] | 40.54 | 65.37
16 | O=C1c2cc(Cl)ccc2-c2c(Cl)nc3ccccc3c21 [TC-XCl-1, 6,9-Dichloro-11H-indeno[1,2-c]quinolin-11-one] | 33.31 | 73.59
